From PMC10154249, “Unique progerin C-terminal peptide ameliorates Hutchinson–Gilford progeria syndrome phenotype by rescuing BUBR1” (Nature Aging, 2023)

Each substance was assayed on progerin (assay: MS analysis of progerin-binding proteins). Details: Fig. 4e; sequence coverage of interacting protein.
In the case of EF1γ, the “Coverage (mass spectrometry assays of the interacting proteins of progerin)” value (from here on “Coverage”) is reported as 14.19%. HSP70 was tested, and the “Coverage” value was 11.86%. With PTBP1 the “Coverage” value was 10.92%.
